Where a name gives a salt, the structure may show the parent alone. The list shows a part of the results. Most entries show no effect beyond the scatter of the controls.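 A single-replicate pilot screen of approved drugs and clinical or known-target compounds measured melting temperature via differential scanning fluorimetry. Top stabilizing hits raised the melting point by 2 °C or more; negative shifts indicate destabilization.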
Test system: SARS-CoV-2 main protease (Mpro, nsp5)
Assay: thermal shift ΔTm of Mpro relative to plate average Tm; higher = stronger thermal stabilization of Mpro (binding)
Conditions: 10 µM; protein concentration 1 µM

Row | Structure (SMILES) | thermal shift ΔTm of Mpro
1 | CN1CCN(c2nc3ccccc3nc2Cl)CC1 | -0.111 °C
2 | COc1cc2c(cc1OC)C(Cc1ccc(O)cc1)N(C)CC2 (centres undefined) [Armepavine] | 0.0187 °C
3 | CO/N=C(\C(=O)N[C@@H]1C(=O)N2C(C(=O)OC(C)OC(C)=O)=C(COC(N)=O)CS[C@H]12)c1ccco1 (some centres undefined) [Cepazine] | -0.0535 °C
4 | C=CC(=O)Nc1cccc(Nc2nc(Nc3ccc(OCCOC)cc3)ncc2F)c1 | 0.148 °C
5 | N#Cc1c(NC(=O)c2cccc3ccccc23)sc2c1CCCC2 [JNK Inhibitor IX] | -0.0348 °C
6 | CCC(=O)Nc1cccc(Oc2nc(Nc3ccc(N4CCN(C)CC4)cc3OC)ncc2Cl)c1 | 0.317 °C
7 | C[C@@H]1O[C@@H](O[C@H]2[C@H](OC(=O)[C@]34CCC(C)(C)C[C@H]3C3=CC[C@@H]5[C@@]6(C)C[C@H](O)[C@H](O[C@@H]7O[C@H](CO)[C@@H](O)[C@H](O)[C@H]7O)C(CO)(CO)[C@@H]6CC[C@@]5(C)[C@]3(C)C[C@H]4O)OC[C@H](O)[C@@H]2O)[C@H](O)[C@H](O)[C@H]1O[C@@H]1OC[C@@H](O)[C@H](O)[C@H]1O [Deapi-platycodin D] | -0.112 °C
8 | CC(C)n1nc(-c2ccc(NC(=O)Nc3cc(C(F)(F)F)ccc3F)cc2)c2c(N)ncnc21 | 0.357 °C
9 | Cn1cc(-c2ccc3c(c2)CCN3C(=O)Cc2cccc(C(F)(F)F)c2)c2c(N)ncnc21 | -0.316 °C
10 | Oc1cccc(-c2nc(N3CCOCC3)c3oc4ncccc4c3n2)c1 | -0.00626 °C
11 | CCOc1cc2c(c(F)c1OCC)C(=N)N(CC(=O)c1cc(N3CCOCC3)c(OC)c(C(C)(C)C)c1)C2 [Atopaxar Hydrobromide] | -0.39 °C
12 | Fc1ccc(-c2c3cccc(C(F)(F)F)c3nn2Cc2ccc(F)cc2Cl)cc1 | 0.103 °C
13 | CC(=O)OCC(=O)[C@H]1CC[C@H]2[C@@H]3CCC4=CC(=O)CC[C@]4(C)[C@H]3CC[C@]12C [Deoxycorticosterone acetate] | -0.0493 °C
14 | Cc1cc(C(=O)Nc2cccc(C(=O)Nc3cccc(C(F)(F)F)c3)c2)on1 | -0.0169 °C
15 | N#C/C(=C\c1ccc(O)c(O)c1)C(=O)NCc1ccccc1 [AG-490 (Tyrphostin B42)] | 0.441 °C
16 | Cc1ccc2nc(NC(=O)CSc3nc4c(c(=O)n3-c3ccccc3)SCC4)sc2c1 | -0.108 °C
17 | C#C[C@]1(O)CC[C@H]2[C@@H]3CCC4=CC(=O)CC[C@@H]4[C@H]3CC[C@@]21CC [Levonorgestrel] | -0.185 °C
18 | N=C(N)NCCN1CCCCCCC1 [Guanethidine Monosulfate] | 0.166 °C
19 | CC(C)(Sc1cc(C(C)(C)C)c(O)c(C(C)(C)C)c1)Sc1cc(C(C)(C)C)c(OC(=O)CCC(=O)O)c(C(C)(C)C)c1 [Succinobucol] | -0.656 °C
20 | CC1(C)[C@@H](OC(=O)CCC(=O)O)CC[C@]2(C)[C@H]3C(=O)C=C4[C@@H]5C[C@@](C)(C(=O)O)CC[C@]5(C)CC[C@@]4(C)[C@]3(C)CC[C@@H]12 [Carbenoxolone disodium] | 0.113 °C
21 | C=CCOC(Cn1ccnc1)c1ccc(Cl)cc1Cl (centres undefined) [Imazalil] | 0.131 °C
22 | Cc1cc2c(C(C)C)c(O)c(O)c(C=O)c2c(O)c1-c1c(C)cc2c(C(C)C)c(O)c(O)c(C=O)c2c1O [Gossypol] | 0.502 °C
23 | Cc1cc2c(C(C)C)c(O)c(O)c(C=O)c2c(O)c1-c1c(C)cc2c(C(C)C)c(O)c(O)c(C=O)c2c1O | 1.15 °C
24 | Cc1cc(COc2nc(N)nc3ccn(Cc4ccccn4)c23)no1 [TLR7-agonist-1] | -0.0956 °C
25 | C[C@@H]1COC(Nc2ccc3ncnc(Nc4ccc(OCc5nccs5)c(Cl)c4)c3c2)=N1 [Varlitinib] | -0.00505 °C

Row | Structure (SMILES) | thermal shift ΔTm of Mpro
26 | O=C(/C=C/c1ccc(O)c(O)c1)O[C@@H]1C[C@](O)(C(=O)O)C[C@@H](O)[C@H]1O [Chlorogenic Acid] | -0.172 °C
27 | CC[C@@H](CO)NCCN[C@@H](CC)CO [Ethambutol HCl] | -0.0294 °C
28 | C=CS(=O)(=O)NC1CCN(C(=O)CNc2cc(I)c(Cl)cc2OC)CC1 [K-Ras(G12C) inhibitor 9] | -0.0423 °C
29 | C[C@]1(Cn2ccnn2)[C@H](C(=O)O)N2C(=O)C[C@H]2S1(=O)=O [Tazobactam acid] | 0.221 °C
30 | CCN(CC)CCCCNc1ncc2cc(-c3cc(OC)cc(OC)c3)c(NC(=O)NC(C)(C)C)nc2n1 | 0.0899 °C
31 | CN1C2CCC1CC(OC(=O)C(O)c1ccccc1)C2 (centres undefined) [Homatropine Bromide] | 0.0198 °C
32 | CCN(CC)CCOCCOC(=O)C(CC)(CC)c1ccccc1 [Oxeladin citrate] | 0.155 °C
33 | CCCOc1ccc(C(=O)OCCN(CC)CC)cc1N [Proparacaine HCl] | 0.0776 °C
34 | O=C(NC1CCN(CC(F)(F)F)CC1)c1ccc(-c2cccc(F)c2)nc1 [HPGDS-inhibitor-1] | -0.0595 °C
35 | O=C([O-])/C=C/C(=O)[O-].[Fe+2] [Ferrous fumarate] | 0.132 °C
36 | CCCCCCCCCCCC[N+](C)(C)CCOc1ccccc1 [Domiphen Bromide] | -0.469 °C
37 | CC(O)c1ccc(S(=O)(=O)NC(=O)NC2CCCCC2)cc1 (centres undefined) [Hydroxyhexamide] | -0.0508 °C
38 | CC(C)NCC(O)c1ccccc1Cl (centres undefined) [Clorprenaline HCl] | -0.0829 °C
39 | Cc1ccc(-n2nc(C(C)(C)C)cc2NC(=O)Nc2ccc(OCCN3CCOCC3)c3ccccc23)cc1 [BIRB 796 (Doramapimod)] | -0.153 °C
40 | CC(C)S(=O)(=O)c1ccc2nccc(Nc3ccc4scnc4c3)c2c1 | -0.0569 °C
41 | CSC(C)=NO [Methomyl Oxime] | 0.258 °C
42 | CNC(=O)c1ccc(C)c(-n2c(C)cc(OCc3ccc(F)cc3F)c(Br)c2=O)c1 | -0.164 °C
43 | Cc1cc(OCc2nnc(SC3CCCC3)n2-c2cccnc2)ccc1-c1ccc(S(C)(=O)=O)cc1 | 0.0082 °C
44 | CC1=C[C@H]2C(=O)O[C@H]3C[C@@H](C/C=C(\C)C[C@@H](C)/C=C/C=C4\CO[C@H](/C1=N\O)[C@@]42O)O[C@@]1(CC[C@H](C)[C@@H](C)O1)C3.CC[C@H]1O[C@]2(CC[C@@H]1C)C[C@@H]1C[C@@H](C/C=C(\C)C[C@@H](C)/C=C/C=C3\CO[C@@H]4/C(=N\O)C(C)=C[C@@H](C(=O)O1)[C@]34O)O2 [Milbemycin oxime] | -0.393 °C
45 | c1ccc2[nH]ncc2c1 [Indazole] | 0.294 °C
46 | COCCOc1ccc(N2CCN(CCn3ncc4c3nc(N)n3nc(-c5ccco5)nc43)CC2)cc1 [Preladenant] | -0.08 °C
47 | c1ccc(CN(CC2=NCCN2)c2ccccc2)cc1 [Antazoline HCl] | -0.029 °C
48 | CC[C@H](C)C[C@H](C)CCCCCCCCC(=O)N[C@H]1C[C@@H](O)[C@@H](NCCN)NC(=O)[C@@H]2[C@@H](O)CCN2C(=O)[C@H]([C@H](O)CCN)NC(=O)[C@H]([C@H](O)[C@@H](O)c2ccc(O)cc2)NC(=O)[C@@H]2C[C@@H](O)CN2C(=O)[C@H]([C@@H](C)O)NC1=O [Caspofungin Acetate] | -0.272 °C
49 | CCn1cc(NC(=S)Nc2cc(Cl)ccc2OC)c(C(N)=O)n1 | -0.125 °C
50 | Nc1ncnc2n[nH]c(Nc3ccc(F)cc3)c12 | -0.306 °C

Another view of part of the listing above:

| Row | Structure (SMILES) | thermal shift ΔTm of Mpro |
| --- | --- | --- |
| 3 | CO/N=C(\C(=O)N[C@@H]1C(=O)N2C(C(=O)OC(C)OC(C)=O)=C(COC(N)=O)CS[C@H]12)c1ccco1 (some centres undefined) [Cepazine] | -0.0535 °C |
| 4 | C=CC(=O)Nc1cccc(Nc2nc(Nc3ccc(OCCOC)cc3)ncc2F)c1 | 0.148 °C |
| 5 | N#Cc1c(NC(=O)c2cccc3ccccc23)sc2c1CCCC2 [JNK Inhibitor IX] | -0.0348 °C |
| 6 | CCC(=O)Nc1cccc(Oc2nc(Nc3ccc(N4CCN(C)CC4)cc3OC)ncc2Cl)c1 | 0.317 °C |
| 7 | C[C@@H]1O[C@@H](O[C@H]2[C@H](OC(=O)[C@]34CCC(C)(C)C[C@H]3C3=CC[C@@H]5[C@@]6(C)C[C@H](O)[C@H](O[C@@H]7O[C@H](CO)[C@@H](O)[C@H](O)[C@H]7O)C(CO)(CO)[C@@H]6CC[C@@]5(C)[C@]3(C)C[C@H]4O)OC[C@H](O)[C@@H]2O)[C@H](O)[C@H](O)[C@H]1O[C@@H]1OC[C@@H](O)[C@H](O)[C@H]1O [Deapi-platycodin D] | -0.112 °C |
| 8 | CC(C)n1nc(-c2ccc(NC(=O)Nc3cc(C(F)(F)F)ccc3F)cc2)c2c(N)ncnc21 | 0.357 °C |
| 9 | Cn1cc(-c2ccc3c(c2)CCN3C(=O)Cc2cccc(C(F)(F)F)c2)c2c(N)ncnc21 | -0.316 °C |
| 10 | Oc1cccc(-c2nc(N3CCOCC3)c3oc4ncccc4c3n2)c1 | -0.00626 °C |
| 11 | CCOc1cc2c(c(F)c1OCC)C(=N)N(CC(=O)c1cc(N3CCOCC3)c(OC)c(C(C)(C)C)c1)C2 [Atopaxar Hydrobromide] | -0.39 °C |
| 12 | Fc1ccc(-c2c3cccc(C(F)(F)F)c3nn2Cc2ccc(F)cc2Cl)cc1 | 0.103 °C |
| 13 | CC(=O)OCC(=O)[C@H]1CC[C@H]2[C@@H]3CCC4=CC(=O)CC[C@]4(C)[C@H]3CC[C@]12C [Deoxycorticosterone acetate] | -0.0493 °C |
| 14 | Cc1cc(C(=O)Nc2cccc(C(=O)Nc3cccc(C(F)(F)F)c3)c2)on1 | -0.0169 °C |
| 15 | N#C/C(=C\c1ccc(O)c(O)c1)C(=O)NCc1ccccc1 [AG-490 (Tyrphostin B42)] | 0.441 °C |

More entries.

Row | Structure (SMILES) | thermal shift ΔTm of Mpro
51 | CN(C)Cc1ccc(S(=O)(=O)n2ccc(/C=C/C(=O)NO)c2)cc1 [Resminostat] | -0.171 °C
52 | CN(C)Cc1ccc(S(=O)(=O)n2ccc(/C=C/C(=O)NO)c2)cc1 [Resminostat hydrochloride] | 0.0972 °C
53 | CCOc1ccc(Oc2ccc(OCc3cc(F)ccc3F)cc2)c(N)c1 | -0.249 °C
54 | CN(C)CC/C=C1/c2ccccc2COc2ccc(CC(=O)O)cc21 [Olopatadine HCl] | 0.000892 °C
55 | COc1ccc(C2(CNC(=O)[C@H](Cc3c[nH]c4ccccc34)NC(=O)Nc3ccc([N+](=O)[O-])cc3)CCCCC2)cc1 | 0.408 °C
56 | CC(C(=O)O)c1ccc(C(=O)c2ccccc2)s1 (centres undefined) [Tiaprofenic acid] | -0.0447 °C
57 | COc1ccccc1N1CCN(CCCC(=O)c2ccc(F)cc2)CC1 [Fluanisone] | 0.323 °C
58 | NC(=O)NS(=O)(=O)c1ccc(N)cc1 [Sulfanilylurea] | 0.256 °C
59 | CCCCCCCCCCCCCCCCOP(=O)([O-])OCC[N+](C)(C)C [Miltefosine] | 0.0264 °C
60 | Cc1ccsc1/C=C/C1=NCCCN1C [Morantel tartrate] | 0.283 °C
61 | O=C(Nc1cnccc1Cl)N1CCN(Cc2ccc3c(c2)OC(F)(F)O3)CC1 | 0.141 °C
62 | COc1cc(C(C)=O)ccc1O [Apocynin] | -0.0623 °C
63 | CSc1ccc(OCc2ncc([N+](=O)[O-])n2C)cc1 [Fexinidazole] | -0.027 °C
64 | O=C(Nc1nccs1)C(c1cc(F)ccc1O)N1Cc2ccccc2C1=O (centres undefined) | -0.0863 °C
65 | Nc1cc(F)ccc1NC(=O)/C=C/c1cnn(C/C=C/c2ccccc2)c1 | 0.651 °C
66 | Nc1nc(NC2CC2)c2ncn([C@H]3C=C[C@@H](CO)C3)c2n1 [Abacavir] | 0.0364 °C
67 | Nc1nc(NC2CC2)c2ncn([C@H]3C=C[C@@H](CO)C3)c2n1 [Abacavir sulfate] | 0.0297 °C
68 | CC(C)c1cc(C=C(C#N)C#N)cc(C(C)C)c1O | 0.14 °C
69 | CCOc1ccc2nc3cc(N)ccc3c(N)c2c1 [Ethacridine lactate monohydrate] | 1.39 °C
70 | Nc1nc(-n2cc(C(=O)O)c(=O)c3cc(F)c(N4CC(O)C4)c(Cl)c32)c(F)cc1F [Delafloxacin] | 0.021 °C
71 | CN(Cc1cnc2nc(N)nc(N)c2n1)c1ccc(C(=O)N[C@@H](CCC(=O)O)C(=O)O)cc1 [Methotrexate] | 0.301 °C
72 | O=C(COc1ccc(Cl)cc1)N1CCN(Cc2ccc3c(c2)OCO3)CC1 [Fipexide] | 0.0393 °C
73 | CN1CCN(c2c(F)cc3c(=O)c(C(=O)O)cn4c3c2OCN4C)CC1 [Marbofloxacin] | -0.0171 °C
74 | CC(C)(C)CC(C)(C)c1ccc(O)c(Cc2ccc(Cl)cc2Cl)c1 [Clofoctol] | 0.225 °C

From the supplement of paper PMC8166895
